Measured values taken from PubChem BioAssay AID1259342 (Broad Institute, 2017).
All entries are inconclusive by the source's own rule. Clear calls are listed elsewhere.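 How the source made its calls: active means fitted half-maximal inhibitory concentration AC50 at most ten times the top concentration tested; inconclusive means flat fit with 30 to 70% inhibition, or unusable fit; inactive means AC50 above ten times the top concentration.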

Sequences of proteins named here, by UniProt entry; tags and fusion partners are left off. A change or cut given only in a name is not applied to a line headed by its entry.
UniProt Q9BVG3: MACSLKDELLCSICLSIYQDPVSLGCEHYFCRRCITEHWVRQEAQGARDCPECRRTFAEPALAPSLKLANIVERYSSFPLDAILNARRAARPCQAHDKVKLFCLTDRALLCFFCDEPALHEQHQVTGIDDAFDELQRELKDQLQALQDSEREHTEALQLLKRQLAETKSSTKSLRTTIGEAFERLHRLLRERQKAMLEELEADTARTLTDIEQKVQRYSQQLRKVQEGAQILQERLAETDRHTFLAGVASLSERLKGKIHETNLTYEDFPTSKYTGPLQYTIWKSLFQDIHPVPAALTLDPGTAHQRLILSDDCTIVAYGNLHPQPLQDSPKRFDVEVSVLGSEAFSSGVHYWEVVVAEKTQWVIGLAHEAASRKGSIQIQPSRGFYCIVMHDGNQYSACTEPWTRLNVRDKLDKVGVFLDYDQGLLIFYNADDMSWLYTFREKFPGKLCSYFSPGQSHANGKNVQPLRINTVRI

biological target: E3 ubiquitin-protein ligase TRIM62 (Homo sapiens) (UniProt Q9BVG3); assay: inhibitors of TRIM62-driven CARD9 ubiquitylation, dose response, CARD9-TRIM62 disruptor project, biochemical, ubiquitin ELISA, AlphaLISA TUBE (AID 1259342); conditions: TRIM62-mediated CARD9 ubiquitylation, AlphaLISA TUBE detection; at 80 µM (top of the series) unless noted;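 further: 0% = neutral control wells and -100% = EDTA-quenched low control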

Activity change, negative = inhibition, inconclusive:
Cc1ccc(N2C(=O)c3ccccc3C2C(=O)c2ccc(O)cc2O)cc1 (stereo unspecified) 39.8%, O=S(=O)(c1ccccc1)N1CC2CN(Cc3ccc(O)cc3)C2C1 (stereo unspecified) -61.3%, O=C(COC(=O)c1ccc(F)cc1F)Nc1ncccn1 75%, O=C(COC(=O)c1cc(-c2ccco2)nc2ccccc12)NCc1ccccc1 89.3%, NC(=O)C1(N2CCCCC2)CCN(c2ncc(NC(=O)c3ccccc3F)cc2C(=O)O)CC1 -74.3%, OCc1ccc(O)c2ncccc12 92.4% [at 38 µM]
